Measured values from the supplement of paper PMC10331698.
± gives the standard deviation of the averaged measurements. Most entries show no effect beyond the scatter of the controls.

Columns and labels:
Experiment in all cases: level (log10 ratio to DMSO vehicle control); higher = higher biomarker level / cell amount than vehicle control
[1] = compound: C=C(C)C(=O)OCC(F)(F)C(F)(F)C(F)(F)F [2,2,3,3,4,4,4-Heptafluorobutyl methacrylate]; settings: 2200 nM; in DMSO
Procedure: (§1)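 BioMAP Diversity Plus panel of 12 human primary cell co-culture systems (3C, 4H, LPS, SAg, BT, BF4T, BE3C, CASM3C, HDF3CGF, KF3CT, MyoF, Mphg). Compounds were added 1 h before stimulation and left for 24 h (MyoF 48 h; BT 72 h for soluble read-outs or 6 d for IgG). Biomarkers were read by ELISA, cytotoxicity by SRB, PBMC viability and proliferation by Alamar Blue. Each well value was divided by the mean of 8 DMSO control wells on the same plate and log10 transformed; duplicate blinded samples were tested at 4 concentrations.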

[2] = compound: C=CC(=O)OCC(F)(F)C(F)(F)C(F)(F)C(F)(F)COC(=O)C=C [1H,1H,6H,6H-Perfluorohexane-1,6-diol diacrylate]; settings: 2200 nM; in DMSO
Procedure: as §1

[3] = compound: FC(F)(F)C(F)(F)C(F)(F)C(F)(F)C(F)(F)C(F)(F)C(F)(F)CCI [1-Iodo-1H,1H,2H,2H-perfluorononane]; settings: in DMSO
Procedure: as §1

[4] = compound: FC(F)(F)C(F)(F)C(F)(F)C(F)(F)C(F)(F)C(F)(F)C(F)(F)I [1-Iodopentadecafluoroheptane]; settings: in DMSO
Procedure: as §1

[5] = compound: FC(F)C(F)(F)COCC1CO1 [((2,2,3,3-Tetrafluoropropoxy)methyl)oxirane]; settings: 2200 nM; in DMSO
Procedure: as §1

Perfluorooctanamide = compound: NC(=O)C(F)(F)C(F)(F)C(F)(F)C(F)(F)C(F)(F)C(F)(F)C(F)(F)F [Perfluorooctanamide]; settings: 2200 nM; in DMSO
Procedure: as §1

Perfluoroundecanoic acid = compound: O=C(O)C(F)(F)C(F)(F)C(F)(F)C(F)(F)C(F)(F)C(F)(F)C(F)(F)C(F)(F)C(F)(F)C(F)(F)F [Perfluoroundecanoic acid]; settings: in DMSO
Procedure: as §1

[6] = compound: O=C(O)C(F)(F)C(F)(F)C(F)(F)C(F)(F)C(F)(F)C(F)(F)C(F)(F)C(F)F [9-H-Perfluorononanoic acid]; settings: 2200 nM; in DMSO
Procedure: as §1

Perfluorobutanoic acid = compound: O=C(O)C(F)(F)C(F)(F)C(F)(F)F [Perfluorobutanoic acid]; settings: 2200 nM; in DMSO
Procedure: as §1

Perfluoropropanoic acid = compound: O=C(O)C(F)(F)C(F)(F)F [Perfluoropropanoic acid]; settings: 2200 nM; in DMSO
Procedure: as §1

[7] = compound: O=C(O)C(F)(F)C(F)(F)OC(F)(F)F [Perfluoro-3-methoxypropanoic acid]; settings: 2200 nM; in DMSO
Procedure: as §1

[8] = compound: O=C(O)C(F)(F)OC(F)(F)C(F)(F)OC(F)(F)C(=O)O [Perfluoro-3,6-dioxaoctane-1,8-dioic acid]; settings: 2200 nM; in DMSO
Procedure: as §1

[9] = compound: O=C(O)C(F)(F)OC(F)(F)C(F)(F)OC(F)(F)C(F)(F)C(F)(F)C(F)(F)F [Perfluoro-3,6-dioxadecanoic acid]; settings: 2200 nM; in DMSO
Procedure: as §1

[10] = compound: O=C(O)C=CC(F)(C(F)(F)F)C(F)(F)F [3-(Perfluoroisopropyl)-2-propenoic acid]; settings: in DMSO
Procedure: as §1

[11] = compound: O=P(O)(O)CCC(F)(F)C(F)(F)C(F)(F)C(F)(F)C(F)(F)C(F)(F)C(F)(F)C(F)(F)F [((Perfluorooctyl)ethyl)phosphonic acid]; settings: 2200 nM; in DMSO
Procedure: as §1

[12] = compound: O=S(=O)(Cl)C(F)(F)C(F)(F)C(F)(F)C(F)(F)C(F)(F)C(F)(F)C(F)(F)C(F)(F)F [Perfluoro-1-octanesulfonyl chloride]; settings: 2200 nM; in DMSO
Procedure: as §1

[13] = compound: OCC(F)(F)C(F)(F)C(F)(F)C(F)(F)C(F)(F)C(F)(F)C(F)(F)C(F)(F)C(F)(F)C(F)(F)C(F)(F)F [11:1 Fluorotelomer alcohol]; settings: in DMSO
Procedure: as §1

[14] = compound: OCCC(F)(F)C(F)(F)C(F)(F)C(F)(F)C(F)(F)C(F)(F)C(F)(F)C(F)(F)F [8:2 Fluorotelomer alcohol]; settings: 2200 nM; in DMSO
Procedure: as §1

Row | Test System | level (log10) [1] | level (log10) [2] | level (log10) ([3]; 740 nM) | level (log10) ([3]; 2200 nM) | level (log10) ([3]; 6700 nM) | level (log10) ([3]; 20000 nM) | level (log10) ([4]; 740 nM) | level (log10) ([4]; 2200 nM) | level (log10) ([4]; 6700 nM) | level (log10) ([4]; 20000 nM) | level (log10) [5] | level (log10) (Perfluorooctanamide) | level (log10) (Perfluoroundecanoic acid; 740 nM) | level (log10) (Perfluoroundecanoic acid; 2200 nM) | level (log10) [6] | level (log10) (Perfluorobutanoic acid) | level (log10) (Perfluoropropanoic acid) | level (log10) [7] | level (log10) [8] | level (log10) [9] | level (log10) ([10]; 2200 nM) | level (log10) ([10]; 6700 nM) | level (log10) ([10]; 20000 nM) | level (log10) ([10]; 60000 nM) | level (log10) [11] | level (log10) [12] | level (log10) ([13]; 370 nM) | level (log10) ([13]; 1100 nM) | level (log10) ([13]; 3300 nM) | level (log10) ([13]; 10000 nM) | level (log10) [14]
1 | HDF3CGF:MMP-1 | -0.0275 ± 0.028 | 0.0285 ± 0.00071 | -0.0125 ± 0.019 | -0.006 | 0.011 ± 0.017 | 0.061 ± 0.04 | 0.006 | -0.008 | -0.0105 ± 0.0021 | -0.0285 ± 0.018 | 0.0205 ± 0.00071 | -0.0135 ± 0.011 | -0.0165 ± 0.018 | -0.0055 ± 0.011 | -0.015 ± 0.041 | 0.0145 ± 0.021 | -0.0035 ± 0.039 | 0.005 ± 0.0014 | 0.0045 ± 0.00071 | -0.0025 ± 0.0021 | 0.0045 ± 0.0035 | 0.0005 ± 0.012 | 0.008 ± 0.011 | 0.0005 ± 0.0064 | -0.003 ± 0.016 | -0.028 ± 0.025 | -0.0295 ± 0.012 | -0.011 ± 0.0057 | -0.042 ± 0.0014 | -0.0255 ± 0.035 | -0.0015 ± 0.00071
2 | HDF3CGF:PAI-I | -0.0035 ± 0.067 | 0.0375 ± 0.05 | 0.0155 ± 0.0035 | 0.0095 ± 0.026 | 0.0075 ± 0.023 | -0.0095 ± 0.032 | -0.0115 ± 0.021 | -0.0245 ± 0.00071 | -0.044 ± 0.0071 | -0.064 ± 0.023 | 0.003 ± 0.0042 | -0.0045 ± 0.016 | -0.0045 ± 0.022 | 0.0145 ± 0.013 | 0.01 ± 0.023 | 0.0165 ± 0.00071 | -0.0515 ± 0.069 | 0.0115 ± 0.037 | 0.0105 ± 0.043 | 0.02 ± 0.021 | -0.0125 ± 0.0064 | -0.0085 ± 0.018 | -0.0215 ± 0.015 | -0.0005 ± 0.032 | -0.0175 ± 0.0078 | 0.0085 ± 0.013 | 0.024 ± 0.0085 | 0.037 ± 0.0014 | 0.0515 ± 0.012 | 0.029 ± 0.075 | -0.01 ± 0.042
3 | HDF3CGF:Proliferation 72hr | -0.017 ± 0.062 | -0.333 ± 0.019 | -0.0555 ± 0.0092 | -0.0545 ± 0.023 | -0.689 ± 0.0092 | -0.815 ± 0.25 | -0.001 ± 0.0057 | 0.008 ± 0.0042 | -0.0275 ± 0.005 | -0.135 ± 0.02 | -0.0835 ± 0.018 | -0.0175 ± 0.044 | 0.0415 ± 0.00071 | 0.0885 ± 0.0035 | -0.0055 ± 0.032 | 0.002 ± 0.05 | -0.018 ± 0.045 | -0.0105 ± 0.026 | -0.0235 ± 0.079 | -0.0365 ± 0.12 | -0.0485 ± 0.098 | -0.033 ± 0.083 | 0.0165 ± 0.086 | 0.04 ± 0.073 | -0.02 ± 0.061 | 0.0625 ± 0.016 | -0.034 ± 0.078 | -0.015 ± 0.065 | 0 ± 0.0099 | 0.021 ± 0.02 | -0.03 ± 0.031
4 | HDF3CGF:SRB | -0.0295 ± 0.021 | -0.011 ± 0.0071 | -0.019 ± 0.0071 | -0.005 ± 0.017 | 0.016 ± 0.045 | -0.052 ± 0.071 | -0.005 ± 0.0028 | -0.0125 ± 0.0035 | 0.013 ± 0.021 | -0.002 ± 0.016 | -0.022 ± 0.0085 | 0.0165 ± 0.005 | 0.0175 ± 0.013 | 0.0285 ± 0.0092 | 0.012 ± 0.0057 | 0.025 ± 0.044 | 0.004 ± 0.014 | -0.0125 ± 0.042 | 0.005 ± 0.045 | -0.0045 ± 0.005 | 0.002 ± 0.055 | -0.014 ± 0.055 | 0.0205 ± 0.011 | -0.0055 ± 0.022 | -0.001 ± 0.03 | -0.008 ± 0.028 | -0.021 ± 0.025 | -0.0055 ± 0.011 | -0.0055 ± 0.016 | 0.0315 ± 0.036 | -0.033 ± 0.03
5 | HDF3CGF:TIMP-1 | -0.038 ± 0.013 | -0.0355 ± 0.039 | 0.004 ± 0.031 | 0.001 ± 0.0057 | -0.0035 ± 0.0035 | 0.047 ± 0.0085 | 0.004 ± 0.025 | -0.005 ± 0.031 | -0.0185 ± 0.0021 | -0.024 ± 0.0042 | 0.006 ± 0.027 | 0.0005 ± 0.011 | 0.0025 ± 0.0064 | 0.019 ± 0.0099 | -0.012 ± 0.038 | 0.0055 ± 0.005 | -0.006 ± 0.025 | 0.008 ± 0.09 | 0.01 ± 0.064 | 0.0025 ± 0.03 | 0.0115 ± 0.039 | -0.006 ± 0.014 | 0.0105 ± 0.015 | 0.007 ± 0.0057 | 0.0235 ± 0.0078 | 0.011 ± 0.014 | -0.004 ± 0.0028 | -0.029 ± 0.024 | -0.07 ± 0.0085 | -0.033 ± 0.016 | 0.024 ± 0.037
6 | HDF3CGF:TIMP-2 | -0.025 ± 0.021 | -0.006 ± 0.079 | 0.001 ± 0.0057 | -0.0035 ± 0.018 | 0.0165 ± 0.011 | 0.0055 ± 0.0064 | 0.0045 ± 0.026 | 0.0015 ± 0.036 | 0.015 ± 0.0057 | 0.0035 ± 0.0035 | -0.0165 ± 0.033 | -0.0145 ± 0.029 | -0.0405 ± 0.063 | 0.018 ± 0.071 | -0.0785 ± 0.056 | -0.022 ± 0.0071 | -0.0265 ± 0.0021 | -0.0155 ± 0.013 | -0.013 ± 0.048 | 0.0005 ± 0.0078 | -0.005 ± 0.011 | -0.0105 ± 0.0021 | -0.0045 ± 0.011 | -0.0115 ± 0.012 | 0.0485 ± 0.037 | -0.0025 ± 0.04 | -0.023 | 0.001 ± 0.0042 | -0.045 ± 0.016 | -0.0325 ± 0.013 | -0.0745 ± 0.13
7 | KF3CT:CCL2/MCP-1 | -0.0015 ± 0.0021 | -0.0515 ± 0.026 | 0.045 ± 0.05 | -0.0025 ± 0.0092 | 0.01 ± 0.03 | 0.0795 ± 0.07 | 0.0035 ± 0.037 | -0.004 ± 0.0071 | 0.0065 ± 0.0092 | 0.0015 ± 0.016 | 0.0195 ± 0.053 | -0.0035 ± 0.011 | 0.028 ± 0.014 | -0.0005 ± 0.013 | 0.0065 ± 0.0092 | 0.0355 ± 0.056 | -0.01 ± 0.014 | -0.026 ± 0.027 | -0.024 ± 0.028 | -0.003 ± 0.028 | 0.009 | -0.012 ± 0.017 | 0 ± 0.027 | 0.0105 ± 0.053 | 0.017 ± 0.021 | -0.028 ± 0.03 | 0.003 ± 0.02 | 0.0265 ± 0.013 | 0.0205 ± 0.00071 | 0.0305 ± 0.00071 | -0.003 ± 0.082
